Laboratory results published in US10538802B2 (IMMUCOR GTI DIAGNOSTICS, INC., priority 2011, dated 2020).

Assay: peptide synthesis
Details: whole synthesis

B1: … (peptide)
chain: DREKAPNLVYMVTGCPASDEIKRLPGDIQVVPIEVIGWPNAPILIQDFETLPREAPDLVLQR
modifications: FAM fluorophore and TQ2 quencher
  purity (crude or final not stated): 95.5%

Plain letter strings leave the end groups untold.
